The record followed here is paper PMC5996148.

Among the test systems are 5 (human); 6 (human); AAAS (human); AASDHPPT (human); ABCF3 (human); ABHD10 (human).
What all share (assay): protein microarray (ProtoArray v5.0), streptavidin-Alexa Fluor 647
Holding throughout (conditions): 3'-biotin; 20 mM Tris (pH 7.5), 5 mM MgCl2, 100 mM KCl, 0.1% Tween-20, A/T-rich and random oligonucleotide blockers; temperature not stated; high values mean tight binding

Experiment [1] has as its system 1-aminocyclopropane-1-carboxylate synthase-like protein 1 (human).
Experiment [2] deals with 14-3-3 protein sigma (human).
Experiment [3] has as its system 2-oxoglutarate and iron-dependent oxygenase domain-containing protein 2 (human).
For experiment [4], the system named is 26S protease regulatory subunit S10B (human).
In experiment [5] the test system is 26S proteasome non-ATPase regulatory subunit 7 (human).
Experiment [6] deals with 3 beta-hydroxysteroid dehydrogenase type 7 (human).
For experiment [7], the system named is 3-hydroxyanthranilate 3,4-dioxygenase (human).
In experiment [8] the test system is 3-keto-steroid reductase (human).
Experiment [9] concerns 39S ribosomal protein L28, mitochondrial (human).
The test system of experiment [10] is 4-hydroxyphenylpyruvate dioxygenase (human).
Experiment [11] deals with 40S ribosomal protein SA (human).
Experiment [12] concerns 6-pyruvoyl tetrahydrobiopterin synthase (human).
Experiment [13] has as its system A-kinase anchor protein 14 (human).
The subject of experiment [14] is A.T hook DNA-binding motif-containing protein 1 (human).

Values joined by “and” are separate entries in the source; they are usually repeats but may differ in a detail not shown here. Equal entries are not always repeated. The list shows a part of the results.

On to “GGGAGGCTGAGGCAGG [G4-1 biotinylated (PQS2)]”, for which the binding signal is -0.314 z-score in [1]; -0.362 z-score in experiment [2]; -0.32 z-score in experiment [3]; -0.239 z-score in [4]; -0.375 z-score in experiment [5]; -0.319 z-score in experiment [6]. The binding signal in [7] is -0.355 z-score; in experiment [8] it was -0.343 z-score; in [9] it was -0.304 z-score; in experiment [10], -0.333 z-score; in experiment [11], -0.355 z-score and -0.294 z-score; in the experiment on 5 (human) it was -0.338 z-score. Also, the binding signal in the experiment on 6 (human) was -0.284 z-score; in experiment [12], -0.34 z-score; in experiment [13] it was -0.347 z-score; in experiment [14] it was -0.344 z-score; in the experiment on AAAS (human), -0.298 z-score; in the experiment on AASDHPPT (human) it was -0.333 z-score. Besides, the values for the binding signal in the experiment with ABCF3 (human) and in the experiment with ABHD10 (human) were -0.279 z-score and -0.308 z-score, respectively.
